Test results taken from US20180100153A1, “Method and kit for use in inhiiting tumor progression, predicting or determining tumor progression state in VGF expressing cancers” (Truebio LLC, priority 2016, published 2018).
For at least one compound, name, drawing or mass did not settle the structure.

Assays:
Assay type in all cases: cell-based
[1] = tested on: HCC827GR/tet-on shVGF cells; assay: Clonogenic assay with doxycycline; details: Dox treatment
[2] = tested on: HCC827GR/tet-on control cells; assay: Clonogenic assay with doxycycline; details: Dox treatment
HCC827GR cells = assay: IC50 analysis via alamarBlue assay, HCC827GR versus HCC827; details: FIG. 1A

| Structure (SMILES) | cell growth in clonogenic assay [1] | cell growth in clonogenic assay [2] | IC50 analysis (EGFR-TKI resistance) (HCC827GR cells) |
| --- | --- | --- | --- |
| C[C@H]1c2cccc(O)c2C(=O)C2=C(O)[C@]3(O)C(=O)C(C(N)=O)=C(O)[C@@H](N(C)C)[C@@H]3[C@@H](O)[C@@H]21 [Dox, doxycycline] | attenuated cell growth | not |  |
| C=CC(=O)Nc1cccc(Nc2nc(Nc3ccc(N4CCN(C(C)=O)CC4)cc3OC)ncc2C(F)(F)F)c1 [rociletinib] |  |  | resistance |
